These are yes or no findings as the source states them, for the method shown. For part of these data: Binding seen in cells or lysates may run through a third protein. Some results given as binding are weak or reduced against the parent protein; the word gives no strength.
Legend:
[1] = target: Abl2 SH3 domain (SH3 domain-array II) (UniProt P42684); assay: peptide or protein array; purified recombinant GRK2 (15 μg/μl) overlaid on the SH3 domain-array II (Panomics MA3011); detected with anti-GRK2 (C-15); spots similar to or stronger than the positive controls taken as hits; both purified
GRK2-wt = GRK2-wt (UniProt P25098); assay: co-IP; asynchronously growing HeLa transiently transfected with GRK2-WT in the presence or absence of c-Abl (with or without 50 µM adaphostin); lysis buffer B; anti-GRK2 immunoprecipitation, anti-c-Abl blot
[2] = target: endogenous GRK2 (human (endogenous in HeLa)) (UniProt P25098); assay: as above

Protein sequences, listed by entry. Tags and fused reporters are not part of them. Residues count along the entry.
UniProt P42684, residues 107-167: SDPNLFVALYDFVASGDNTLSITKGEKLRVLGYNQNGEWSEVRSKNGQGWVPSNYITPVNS
UniProt P00519: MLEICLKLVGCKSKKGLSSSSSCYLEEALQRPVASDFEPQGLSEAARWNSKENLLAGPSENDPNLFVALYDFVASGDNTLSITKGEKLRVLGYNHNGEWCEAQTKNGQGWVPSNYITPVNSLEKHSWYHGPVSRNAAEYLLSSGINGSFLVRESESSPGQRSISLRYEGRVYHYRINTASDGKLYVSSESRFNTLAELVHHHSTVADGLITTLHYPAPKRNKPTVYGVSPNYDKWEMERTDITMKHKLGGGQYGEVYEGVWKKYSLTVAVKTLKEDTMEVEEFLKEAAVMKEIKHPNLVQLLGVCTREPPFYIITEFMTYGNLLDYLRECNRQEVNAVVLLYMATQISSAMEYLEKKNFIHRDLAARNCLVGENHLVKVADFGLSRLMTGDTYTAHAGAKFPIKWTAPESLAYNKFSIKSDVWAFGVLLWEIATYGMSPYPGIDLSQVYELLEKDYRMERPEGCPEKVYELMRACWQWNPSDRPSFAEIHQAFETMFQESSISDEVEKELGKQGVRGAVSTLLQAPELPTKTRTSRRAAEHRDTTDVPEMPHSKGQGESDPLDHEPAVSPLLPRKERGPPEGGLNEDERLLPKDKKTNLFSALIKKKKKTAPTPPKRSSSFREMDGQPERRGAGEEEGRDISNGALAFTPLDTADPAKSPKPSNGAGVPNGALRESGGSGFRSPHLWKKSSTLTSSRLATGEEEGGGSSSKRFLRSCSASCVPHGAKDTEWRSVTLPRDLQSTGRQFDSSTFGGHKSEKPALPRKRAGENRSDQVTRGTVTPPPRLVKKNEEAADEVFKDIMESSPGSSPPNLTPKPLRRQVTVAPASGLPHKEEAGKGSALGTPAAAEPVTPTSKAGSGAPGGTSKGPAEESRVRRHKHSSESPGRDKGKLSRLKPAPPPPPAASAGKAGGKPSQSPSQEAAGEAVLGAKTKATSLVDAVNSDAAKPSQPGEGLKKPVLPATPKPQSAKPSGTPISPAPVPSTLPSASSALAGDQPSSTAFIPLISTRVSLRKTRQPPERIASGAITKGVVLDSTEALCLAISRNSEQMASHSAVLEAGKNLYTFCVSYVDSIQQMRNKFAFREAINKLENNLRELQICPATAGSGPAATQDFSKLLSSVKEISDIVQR

purified recombinant GRK2 protein (from UniProt P25098 1-689)
binding [1]: binds

Abl1 (overexpressed) (from UniProt P00519 1-1130) (enzyme)
binding (GRK2-wt): binds | binding [2]: binds
